The values below come from article PMC7819943, “Rice protein-binding microarrays: a tool to detect cis-acting elements near promoter regions in rice”.

Some of the results follow.

The experiment deals with T1, OsSMF1 (Oryza sativa, UniProt Q6ZLB0 1-436).
T1 sequence: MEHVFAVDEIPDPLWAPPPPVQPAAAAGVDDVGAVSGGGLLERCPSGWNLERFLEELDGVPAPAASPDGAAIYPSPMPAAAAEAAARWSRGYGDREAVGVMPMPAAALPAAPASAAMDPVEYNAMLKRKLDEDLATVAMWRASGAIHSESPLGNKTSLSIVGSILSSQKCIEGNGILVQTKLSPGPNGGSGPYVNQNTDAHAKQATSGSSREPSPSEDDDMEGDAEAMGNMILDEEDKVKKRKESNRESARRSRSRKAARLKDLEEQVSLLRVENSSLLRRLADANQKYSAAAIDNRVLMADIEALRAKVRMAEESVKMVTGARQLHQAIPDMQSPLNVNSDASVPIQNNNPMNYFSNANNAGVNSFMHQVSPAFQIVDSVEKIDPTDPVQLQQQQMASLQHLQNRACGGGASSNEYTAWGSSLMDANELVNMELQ
Nature of the experiment: protein-binding microarray (RPBM); PBS, 2% BSA, 51.3 ng/ul salmon testes DNA, 50 uM zinc acetate, 200 nM TF, 25 C, 1 h; high values mean tight binding. As to conditions: protein: recombinant; tags: N-terminal polyhistidine and DsRed monomer fusion (pET32a); chain copies: 2; label: CyDye5-dUTP incorporated in the synthesized complementary strand; 3' TTTTT single-stranded linker to array surface; dsDNA, one strand shown. Summed up: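 Transcription factors, each fused N-terminally to a polyhistidine tag and DsRed, were expressed in E. coli BL21-CodonPlus and purified on Ni–NTA. A custom Agilent array was made double-stranded by primer extension with Cy5-dUTP and blocked with 2% BSA. It was incubated with 200 nM protein in PBS, 2% BSA, salmon testes DNA and 50 µM zinc acetate at 25 °C for 1 h, then washed. The binding signal is per-feature fluorescence intensity (arbitrary units) read on an Axon 4000B scanner.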
With “TTCAACATTCGCAAATTCCCACGTAATGATTACTTTTAGACGGAGTCACCTAGTGCAG”, the binding signal was 3970 fluorescence intensity (a.u.).
With “AGGGGAAGGAAGCGCCTCGACCAACGTGGGTGCGGGTGGCCGGAGTCACCTAGTGCAG”, the binding signal was 3920 fluorescence intensity (a.u.).
The same measure for “CCTGCAGCCAGGTCCTCGTATCATAGATGACGACGACTTCCGGAGTCACCTAGTGCAG”: 4660 fluorescence intensity (a.u.); for “CTCTCCAACTCGAGGAGGACACGCACGTTGCCACCACAGGCGGAGTCACCTAGTGCAG”: 3770 fluorescence intensity (a.u.); for “TGTTTAGATACTAATTTAGAGTATTAAACATACATTAATTCGGAGTCACCTAGTGCAG”: 3450 fluorescence intensity (a.u.).
Regarding “CGTCTCCTTCTTTTCCACGCCGCCGTCACGGAGTTCTCCTCGGAGTCACCTAGTGCAG”, the binding signal was 13200 fluorescence intensity (a.u.).
Consider “GCGCCGCTAATCCCTGTATCGCTGGACACGACACGTGCCCCGGAGTCACCTAGTGCAG”, for which the binding signal is 7780 fluorescence intensity (a.u.).
Turning to “GTGGTTGGCTGGTCGTTGCGTGGCCACCGCCTCCTCCCGACGGAGTCACCTAGTGCAG”, the binding signal was 4010 fluorescence intensity (a.u.).
The same measure for “ATTGTATAAGATCTGAAACTCACTGACTCACCTGTATTTGCGGAGTCACCTAGTGCAG”: 4230 fluorescence intensity (a.u.); for “TCAACTATAAAATTGTAGATCGCGTCGAGGGCTACAAGTTCGGAGTCACCTAGTGCAG”: 3490 fluorescence intensity (a.u.).
For “GAGTGGTGTGCTGGGACGTGGCTGGGCAGGACTAGCCCTCCGGAGTCACCTAGTGCAG” the value was 5340 fluorescence intensity (a.u.).
The same measure for “ATGCCTACACACCACCACGCATGCACACCATCACACACATCGGAGTCACCTAGTGCAG”: 4940 fluorescence intensity (a.u.); for “TGCACTGCCAAACACCACCTATTGCTCACAGGTGCGCCCGCGGAGTCACCTAGTGCAG”: 4180 fluorescence intensity (a.u.); for “TTTGGATTGAGGGACGATTTTGTAATTCGATGACAAGTTGCGGAGTCACCTAGTGCAG”: 3380 fluorescence intensity (a.u.).
With “GCTGCACTCATCAGTGACCAGTGACCTCACTATCTAGTCACGGAGTCACCTAGTGCAG”, the binding signal is 3350 fluorescence intensity (a.u.).
For “TTGCCATTAAAGTTCTAGATGATTGTACTTGATTTGCATTCGGAGTCACCTAGTGCAG” the value was 3200 fluorescence intensity (a.u.).
Consider “GTCCGATCATCTCACGTGGCATCTCGAAGCGGCCGCATTACGGAGTCACCTAGTGCAG”, for which the binding signal was 5980 fluorescence intensity (a.u.).
The same measure for “TTTTGCACACATGTATCATGCTGACGTCAGCATGACGTGGCGGAGTCACCTAGTGCAG”: 61200 fluorescence intensity (a.u.); for “TGCCGGCGGTGTTCTACAACGTGACGTTCAAGCCGTCCAACGGAGTCACCTAGTGCAG”: 3410 fluorescence intensity (a.u.).
The same measure for “TTTGACTCCGATTTTATCCGACGTGGCAGCTGACTCAGCGCGGAGTCACCTAGTGCAG”: 25300 fluorescence intensity (a.u.); for “AATTATTAGATAACATATGGCTATCCATATAAATAGTGTACGGAGTCACCTAGTGCAG”: 13600 fluorescence intensity (a.u.).
For “TTTAAATGTGATGATTTGTTAGTGGATGATGATGTATCATCGGAGTCACCTAGTGCAG” the value was 3400 fluorescence intensity (a.u.).
As to “ATACTTGAGGCAAGGCAATGCCATGACAACATCTTCTCATCGGAGTCACCTAGTGCAG”, the binding signal is 4290 fluorescence intensity (a.u.).
